Measurements from patent US20220193060A1, “Inhibition of IL-1 Induced Inflammation” (THIOLAB, LLC., priority 2019, published 2022).
For at least one compound, name, drawing or mass did not settle the structure.

Test system: IL-6
Assay: LPS-stimulated macrophages, IL-6 ELISA
Assay type: cell-based
Details: murine RAW 264.7 cells
Experimental: An in vitro model of inflammation mediated by macrophages is used. Primary macrophages isolated from humans or non-human species (e.g., mice or rats) were used. A murine macrophage cell line RAW264.7 (CCRL-2278) was also used. Macrophages are treated with CPDS. […] Then the effect of CPDS on inflammation is assessed by comparing the levels of […] mediators IL-6 and IL-10. IL-10 and IL-6 were determined by ELISA. The level of IL-6 and IL-10 were compared to the level prior to CPDS treatment.

C[C@@H]1C[C@H]2[C@@H]3CCC4=CC(=O)C=C[C@]4(C)[C@@]3(F)[C@@H](O)C[C@]2(C)[C@@]1(O)C(=O)CO [Dexamethasone, reference compound]
positive control activity on cytokine release: active as expected
